US11634378B2, “Compounds and methods targeting GPER in calcium disorders” (Saint Louis University, priority 2017, dated 2023)
Some results were stated once for a whole list of compounds, not compound by compound.

Chains of the proteins cited; added tags and fusions are not shown.
UniProt Q99527, whole entry: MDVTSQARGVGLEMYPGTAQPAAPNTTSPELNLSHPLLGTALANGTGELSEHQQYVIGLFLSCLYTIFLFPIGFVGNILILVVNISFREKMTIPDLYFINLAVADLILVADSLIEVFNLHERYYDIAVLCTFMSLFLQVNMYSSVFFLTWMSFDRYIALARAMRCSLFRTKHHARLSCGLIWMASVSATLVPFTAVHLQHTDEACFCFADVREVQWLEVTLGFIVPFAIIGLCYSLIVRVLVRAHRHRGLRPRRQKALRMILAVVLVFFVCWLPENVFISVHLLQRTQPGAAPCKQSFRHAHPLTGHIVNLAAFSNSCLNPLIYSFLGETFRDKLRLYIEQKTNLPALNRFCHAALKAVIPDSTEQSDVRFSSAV

Target: T1, GPER (Homo sapiens, UniProt Q99527)
T1 construct: HL-60 cells (a human promyelocytic leukemia cell line) which endogenously expresses GPER; host or cells: HL-60
Assay: Calcium mobilization agonism assay in indo1-AM-loaded HL-60 cells
Assay type: cell-based
Details: tested in a similar fashion as G-1

With `CC(C)(C)c1ccc(NCc2ccc(-c3ccccc3)cc2)c(C2CCCCC2)c1` [Compound 20] the “GPER agonism, concentration below which no agonism was shown” value was no less than 10 µM.
